In publication PMC10967246:
Results are given in words; binding and its absence hold for the method and conditions named. Binding calls can cover weak binding; strength is not graded here. Where a sequence is shown, tags or fusion partners need not be part of it.

Molecular target: TTP1 without transit peptide, split-ubiquitin yeast two-hybrid fusion (Arabidopsis)
Assay: two-hybrid; split-ubiquitin yeast two-hybrid; proteins without transit peptide; bait vector pDHB1MCS2, prey vector met25pXCgate; selection without histidine, uracil, leucine and tryptophan, 20 mM 3-aminotriazole, 3 d at 30 °C

Row | Binder | binding
1 | PORB without transit peptide, split-ubiquitin yeast two-hybrid fusion (enzyme, UniProt P21218 67-401) QTAATSSPTVTKSVDGKKTLRKGNVVVTGASSGLGLATAKALAETGKWNVIMACRDFLKAERAAKSVGMPKDSYTVMHLDLASLDSVRQFVDNFRRTETPLDVLVCNAAVYFPTAKEPTYSAEGFELSVATNHLGHFLLARLLLDDLKKSDYPSKRLIIVGSITGNTNTLAGNVPPKANLGDLRGLAGGLNGLNSSAMIDGGDFDGAKAYKDSKVCNMLTMQEFHRRFHEETGVTFASLYPGCIASTGLFREHIPLFRALFPPFQKYITKGYVSETESGKRLAQVVSDPSLTKSGVYWSWNNASASFENQLSEEASDVEKARKVWEISEKLVGLA | binds
2 | PORC without transit peptide, split-ubiquitin yeast two-hybrid fusion (enzyme, UniProt O48741 68-401) QTVTATPPANEASPEQKKTERKGTAVITGASSGLGLATAKALADTGKWHVIMACRNFLKAEKAARSVGMSKEDYTVMHLDLASLESVKQFVENFRRTEQPLDVLVCNAAVYQPTAKEPSFTAEGFEISVGTNHLGHFLLSRLLLDDLKKSDYPSKRMIIVGSITGNTNTLAGNVPPKANLGDLRGLASGLNGQNSSMIDGGEFDGAKAYKDSKVCNMLTMQELHRRYHEETGVTFASLYPGCIATTGLFREHIPLFRLLFPPFQKYITKGYVSEEEAGKRLAQVVSDPSLGKSGVYWSWNNNSSSFENQLSKEASDAEKAKKLWEVSEKLVGLA | binds
3 | PORA without transit peptide, split-ubiquitin yeast two-hybrid fusion (enzyme, UniProt Q42536 70-405) QAIATSTPSVTKSSLDRKKTLRKGNVVVTGASSGLGLATAKALAETGKWHVIMACRDFLKAERAAQSAGMPKDSYTVMHLDLASLDSVRQFVDNFRRAEMPLDVLVCNAAVYQPTANQPTFTAEGFELSVGINHLGHFLLSRLLIDDLKNSDYPSKRLIIVGSITGNTNTLAGNVPPKANLGDLRGLAGGLNGLNSSAMIDGGDFVGAKAYKDSKVCNMLTMQEFHRRFHEDTGITFASLYPGCIATTGLFREHIPLFRTLFPPFQKYITKGYVSESEAGKRLAQVVADPSLTKSGVYWSWNKTSASFENQLSQEASDVEKARRVWEVSEKLVGLA | binds
